The other results are listed elsewhere or left out. Further columns of the screen follow, without active or inactive calls. Most of these compounds were active or inconclusive in the main read-out, so they are no random draw. The note in brackets gives the kind of curve behind each potency; many fits are weak.
Assay: qHTS Assay for Modulators of Lamin A Splicing
Details: HeLa LMNA splicing GFP/RFP minigene ratio, 48 h
How it was run: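 Read-out is the ratio of GFP to DsRed2 object intensity, acquired by 488 nm laser-scanning cytometry on HeLa lamin A-EGFP minigene reporter cells. Compound incubation 48 hrs at 37 °C in Opti-MEM with 2% FBS; DMSO 0.5% final.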

[1] = measured here: RFP viability control channel
[2] = measured here: GFP splicing reporter channel

SMILES | AC50 [1] | AC50 [2]
Cc1noc(C)c1CSCC(=O)N1CCN(c2ccc(F)cc2)CC1 | 12.6 µM [rising, partial curve] | 
CC1CC(OC(=O)c2ccccc2O)CC(C)(C)C1 (configuration not stated) | 35.5 µM [falling, single point] | 35.5 µM [falling, single point]
O=C(COc1ccc(C(=O)c2ccccc2)cc1)NC1CCCCC1 | 11.2 µM [rising, partial curve] | 3.16 µM [rising, full curve, poor fit]
O=C(Nc1ccc(Oc2ccc(NC(=O)Nc3ccccc3Cl)cc2)cc1)Nc1ccccc1Cl | 12.6 µM [falling, partial curve] | 35.5 µM [falling, single point]
CCOC(=O)c1cnc2c(Cl)c(Cl)ccc2c1N1CCN(C)CC1 | 35.5 µM [rising, single point] | 22.4 µM [rising, single point]
COC(=O)c1cc(CNC(=O)c2cccc(Cl)c2Cl)ccc1OC | 22.4 µM [rising, single point] | 20 µM [rising, partial curve, poor fit]
COc1ccc(CN2CCN(CC(O)Cn3c4ccccc4c4ccccc43)CC2)cc1 (configuration not stated) | 35.5 µM [falling, single point] | 35.5 µM [falling, single point]
COCCNC(=O)CSc1c(C)cnc2c1c(=O)n(C)c(=O)n2C | 0.501 µM [rising, full curve, poor fit] | 
CC1CCc2c(sc3ncnc(NCc4cccnc4)c23)C1 (configuration not stated) |  | 0.316 µM [falling, full curve, poor fit]
C[C@@H](CN1CCC(Cc2ccccc2)CC1)[C@@H](O)c1ccc(O)cc1 |  | 0.141 µM [rising, full curve, poor fit]
Cc1ccc(-n2c(NN)nc3ccccc3c2=O)c(C)c1 |  | 35.5 µM [rising, single point]
CCN(c1ccccc1)S(=O)(=O)c1cccc(C(=O)NCC(c2cccs2)N(C)C)c1 (configuration not stated) |  | 0.0355 µM [falling, full curve, poor fit]
CN(C)C(N)=NCCC[C@H](N)C(=O)O |  | 0.141 µM [falling, full curve]
O=[N+]([O-])c1ccc2cn(-c3ccccc3)nc2c1 | 11.2 µM [rising, partial curve] | 20 µM [rising, single point]
CN(C)S(=O)(=O)c1ccc(NC(=O)C2COc3ccccc3O2)cc1 (configuration not stated) | 12.6 µM [rising, single point] | 
Cc1ccc(-n2nnc3c(=O)n(CC(=O)NCc4ccco4)cnc32)cc1 | 25.1 µM [rising, single point] | 
CCc1ccc(NC(=S)NC2CCN(Cc3ccccc3)CC2)cc1 | 14.1 µM [rising, partial curve, poor fit] | 
O=C1C2C(C(=O)N1/N=C/c1ccc([N+](=O)[O-])o1)C1C=CC2C12CC2 (configuration not stated) | 35.5 µM [rising, single point] | 35.5 µM [rising, single point]
Cc1ccc(NC2=C(NCCO)C(=O)c3ccccc3C2=O)cc1 | 20 µM [rising, single point] | 
COc1cccc2cc(C(=O)N3CCN(c4ccc(C)cc4C)CC3)c(=O)oc12 | 22.4 µM [rising, single point] | 
COc1ccccc1-c1cc2nc(C)c(CCC(=O)NCc3ccco3)c(C)n2n1 | 31.6 µM [rising, partial curve, poor fit] | 
NC(=O)c1cc(Cc2ccccc2)sc1NC(=O)c1ccco1 | 35.5 µM [rising, single point] | 
COc1ccc(-c2nc(/C=C3\C(C)=Nc4ccccc43)c(O)o2)cc1 | 31.6 µM [rising, single point] | 
COc1cccc(C(=O)NC(=S)Nc2ccc(N(C)C)cc2)c1 | 14.1 µM [rising, single point] | 20 µM [rising, single point]
COc1ccc(-c2[nH]ncc2CN(C)CC2CCCCO2)cc1F (configuration not stated) | 0.178 µM [falling, full curve] | 0.158 µM [falling, full curve, poor fit]
COc1ccc(C(=O)NN/C(C)=C/C(=O)C(F)(F)C(F)(F)C(F)(F)F)cc1 | 11.2 µM [rising, partial curve] | 
CSC(=S)N/N=C(\C)c1ccccc1 | 7.08 µM [rising, partial curve] | 
COc1ccc(NS(=O)(=O)c2ccc(N3CCCC3)c(NC(=S)Nc3ccc(SC(F)F)cc3)c2)cc1 | 10 µM [rising, partial curve] | 

SMILES | AC50 [1] | AC50 [2]
COc1ccc(CCNC(=O)c2ccc3c(c2)nc(C)n3-c2ccc(Br)cc2)cc1OC |  | 0.01 µM [falling, full curve]
CC(C)Oc1ccc(/C=N/NC(N)=S)cc1 | 6.31 µM [rising, single point] | 28.2 µM [falling, single point]
COc1ccc(-c2csc(N(CC3CCCO3)C(=O)c3ccco3)n2)cc1 (configuration not stated) | 12.6 µM [rising, partial curve] | 
Cc1ccc2nc(-c3ccccc3Cl)cc(C(=O)Nc3cc(C)on3)c2c1 |  | 11.2 µM [rising, single point]
COc1ccc(CC(=O)OCc2cc(=O)n3cc(Br)ccc3n2)cc1OC | 17.8 µM [rising, partial curve, poor fit] | 
Cn1cc(/C=C/C(=O)N2CCCC(C(=O)c3ccc(C(C)(C)C)cc3)C2)cn1 (configuration not stated) | 5.01 µM [falling, full curve, poor fit] | 4.47 µM [falling, full curve, poor fit]
COc1cccc(/C=C(/C#N)c2ccc(F)cc2)c1OCc1cccc(C(=O)O)c1 |  | 20 µM [rising, single point]
COc1ccc(Br)c(/C=N/NC(=O)COc2ccc(-c3ccccc3)cc2)c1 | 8.91 µM [rising, partial curve, poor fit] | 6.31 µM [rising, partial curve]
CCn1c(=N)c(C(=O)OC)cc2c(=O)n3ccccc3nc21 | 0.141 µM [falling, full curve, poor fit] | 
COc1ccc(CSc2cccc3cccnc23)cc1[N+](=O)[O-] | 25.1 µM [rising, single point] | 20 µM [rising, partial curve, poor fit]
O=C(c1ccccc1)c1ccc2nc(N3CCCCC3)c3nncn3c2c1 | 35.5 µM [rising, single point] | 
COc1ccccc1CNCC(O)(c1ccc(Cl)cc1)c1ccc(Cl)cc1 | 12.6 µM [falling, partial curve] | 11.2 µM [falling, partial curve]
CCOC(=O)c1ccc(NC(=O)CSc2nnc(CCc3ccc(C)o3)n2-c2ccccc2)cc1 | 5.62 µM [falling, single point] | 5.62 µM [falling, single point]
COc1ccc(-n2c(SCC(=O)NCC3CCCO3)nc3n[nH]c(C)c3c2=N)cc1 (configuration not stated) | 35.5 µM [rising, single point] | 
Cc1ccccc1Cn1c(CN2CCc3ccccc3C2)nc2c1c(=O)n(C)c(=O)n2C | 35.5 µM [rising, single point] | 
N[C@H](Cc1c[nH]c2ccccc12)C(=O)O | 0.0891 µM [rising, full curve] | 
Cn1cc(/C=C2/SC(=O)N(CC(=O)Nc3ccc4c(c3)OCO4)C2=O)c2ccccc21 | 11.2 µM [falling, partial curve] | 10 µM [falling, partial curve]
COc1ccc(C(C(=O)NC2CCCC2)N(Cc2ccccc2)C(=O)c2nsc(Cl)c2Cl)cc1 (configuration not stated) | 35.5 µM [rising, single point] | 
CCC1=NN2C(=N)/C(=C\c3cccn3-c3cccc(Cl)c3)C(=O)N=C2S1 |  | 5.62 µM [rising, single point]
Cc1ccc(CNC(=O)/C=C/c2ccc(S(=O)(=O)NCc3ccco3)cc2)cc1 | 35.5 µM [rising, single point] | 31.6 µM [rising, single point]
O=[N+]([O-])c1nn(-c2ccc(Cl)cc2)n(O)c1=NCc1cccnc1 | 35.5 µM [falling, partial curve, poor fit] | 35.5 µM [falling, partial curve, poor fit]
COCCNC(=O)Cn1c(-c2cccs2)cc2cc(Cl)ccc21 | 0.0178 µM [falling, full curve, poor fit] | 0.0178 µM [falling, full curve]
CCN1/C(=C\c2ccc3ccccc3[n+]2CC)Sc2cc(C)ccc21 |  | 3.16 µM [rising, full curve]
COc1ccc(CN2CCNC(=O)C2CC(=O)N(C)Cc2ccon2)cc1OC (configuration not stated) | 0.1 µM [falling, full curve, poor fit] | 
COc1cc(C(=O)NCCc2sc(-c3ccc(C)cc3)nc2C)cc(OC)c1OC | 11.2 µM [falling, partial curve, poor fit] | 11.2 µM [falling, partial curve, poor fit]
O=C(NCc1ccc2c(c1)OCO2)c1ccc(CS(=O)(=O)Cc2cccc(Cl)c2)o1 | 12.6 µM [rising, partial curve, poor fit] | 
O=C(Nc1ccc2c(c1)CCC2)C1CCCN(c2ncccn2)C1 (configuration not stated) | 12.6 µM [rising, partial curve] | 5.01 µM [rising, partial curve]

Given tab-delimited: entries from further up
SMILES	AC50 [1]	AC50 [2]
Cc1ccc(-n2c(NN)nc3ccccc3c2=O)c(C)c1		35.5 µM [rising, single point]
CSC(=S)N/N=C(\C)c1ccccc1	7.08 µM [rising, partial curve]	
COc1ccccc1CNCC(O)(c1ccc(Cl)cc1)c1ccc(Cl)cc1	12.6 µM [falling, partial curve]	11.2 µM [falling, partial curve]
CCOC(=O)c1ccc(NC(=O)CSc2nnc(CCc3ccc(C)o3)n2-c2ccccc2)cc1	5.62 µM [falling, single point]	5.62 µM [falling, single point]
